Source: patent US20030059461A1
Results are given in words; binding and its absence hold for the method and conditions named. Some binding calls cover weakened binding; strength is not graded here.

Protein sequences, listed by entry. Tags and fused reporters are not part of them. Residues count along the entry.
UniProt P61823, residues 47-150: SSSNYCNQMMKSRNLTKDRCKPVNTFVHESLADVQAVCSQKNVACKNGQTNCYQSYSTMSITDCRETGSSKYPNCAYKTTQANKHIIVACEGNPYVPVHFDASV

What was measured:
[1] = target: FVEGF121 fusion protein (bovine; human) (UniProt P15692); test: reconstituted ribonuclease activity, S-tag assay
[2] = target: FVEGF121 fusion protein (bovine; human) (UniProt P15692); test: reconstituted ribonuclease activity, S-tag Rapid Assay Kit

## Lip(Dox)-SP (doxorubicin-loaded liposome carrying S-protein) (from UniProt P61823 47-150)
[1]
  binding: binds
[2]
  binding: binds
